# This is one part of the list.
# Biological target: T1, OsSMF1 (Oryza sativa, UniProt Q6ZLB0 1-436)
# T1 sequence: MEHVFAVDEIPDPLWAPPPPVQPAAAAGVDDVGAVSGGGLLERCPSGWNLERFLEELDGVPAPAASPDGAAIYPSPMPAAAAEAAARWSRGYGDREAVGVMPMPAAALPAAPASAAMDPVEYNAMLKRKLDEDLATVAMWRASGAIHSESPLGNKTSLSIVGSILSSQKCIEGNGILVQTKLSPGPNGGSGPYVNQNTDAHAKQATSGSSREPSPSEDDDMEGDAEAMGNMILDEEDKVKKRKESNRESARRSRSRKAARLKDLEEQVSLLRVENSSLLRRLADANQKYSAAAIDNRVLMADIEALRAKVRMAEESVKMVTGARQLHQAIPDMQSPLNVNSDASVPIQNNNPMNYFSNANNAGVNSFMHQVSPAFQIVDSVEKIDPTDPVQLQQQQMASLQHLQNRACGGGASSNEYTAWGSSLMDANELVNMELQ
# Assay: protein-binding microarray (RPBM); PBS, 2% BSA, 51.3 ng/ul salmon testes DNA, 50 uM zinc acetate, 200 nM TF, 25 C, 1 h; high values mean tight binding
# Details: protein: recombinant; tags: N-terminal polyhistidine and DsRed monomer fusion (pET32a); chain copies: 2; label: CyDye5-dUTP incorporated in the synthesized complementary strand; 3' TTTTT single-stranded linker to array surface; dsDNA, one strand shown
# Outline: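 Binding signal is reported as fluorescence intensity per feature (arbitrary units) from an Axon 4000B scanner. Incubation used 200 nM of each Ni–NTA-purified, N-terminally polyhistidine- and DsRed-fused transcription factor from E. coli BL21-CodonPlus on a double-stranded custom Agilent array for 1 h at 25 °C, with 50 µM zinc acetate in the buffer, followed by washing.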
row,Sequence,binding signal
1,ACGACAATAACATATGCCGTGCATGCCAGGTGGCGGCATCCGGAGTCACCTAGTGCAG,6000 fluorescence intensity (a.u.)
2,CCCTGCTTCCTTTCTTCATCGTCCTCAGCTCATCATCTGCCGGAGTCACCTAGTGCAG,3360 fluorescence intensity (a.u.)
3,TTAAGATTCGTGCAGCCTCACTCGGACTTGTCATCTGATCCGGAGTCACCTAGTGCAG,3860 fluorescence intensity (a.u.)
4,CCAATCTCGTCATCCTCTGTCATACAGAGCTTGCCGCTGCCGGAGTCACCTAGTGCAG,4650 fluorescence intensity (a.u.)
5,GGTTGATTATTCCGTCGGCGTCAGCCATCAGGTGCATCACCGGAGTCACCTAGTGCAG,3270 fluorescence intensity (a.u.)
6,GGCGGTAGTATATATAGTACGTGTACAACATCGTGAGAGACGGAGTCACCTAGTGCAG,3240 fluorescence intensity (a.u.)
7,GGGATATGGAAACCACTAATACTAGTCATTTCGTCATGCTCGGAGTCACCTAGTGCAG,4260 fluorescence intensity (a.u.)
8,GATGTGCATGGCACAAGATATACATAAATCTAAATTGCTGCGGAGTCACCTAGTGCAG,3220 fluorescence intensity (a.u.)
9,TCATCAAATGACTCTTCTACCCCTCCATTGCCCGGTCTAGCGGAGTCACCTAGTGCAG,14400 fluorescence intensity (a.u.)
10,CGAAAAGTATTTTAGAACGGGATGGAGTAGTATAATACACCGGAGTCACCTAGTGCAG,3290 fluorescence intensity (a.u.)
11,AGAGGGAGGAGGGGACTGGGGCGGCGGCTAGGGTTGGGGACGGAGTCACCTAGTGCAG,5330 fluorescence intensity (a.u.)
12,AATGTCCCATCTTTCGTGTGTAAGGCACGTTAGTCTCAGGCGGAGTCACCTAGTGCAG,4290 fluorescence intensity (a.u.)
13,GAATAGACTTAATAAATGAACACAAATATATAGATCATTTCGGAGTCACCTAGTGCAG,24900 fluorescence intensity (a.u.)
14,CCCACATGAGGAGATAAGGCCAGCCGGCTCCCACTTCTCCCGGAGTCACCTAGTGCAG,11600 fluorescence intensity (a.u.)
15,TCAATCATGAGGACATGGTAATATATTGCTTGTGTTGCTTCGGAGTCACCTAGTGCAG,3550 fluorescence intensity (a.u.)
16,GTTTGTTGTCGATACAATCACTAGTTGTGTTTGTTAATTTCGGAGTCACCTAGTGCAG,4170 fluorescence intensity (a.u.)
17,TACCTTGATCGATCGCGAGTAATATCGCATCAGCATTCAACGGAGTCACCTAGTGCAG,4050 ± 136 fluorescence intensity (a.u.)
18,CCCGTCCATCCCATGCAGCCACACAGGCACGGAGGTGGCACGGAGTCACCTAGTGCAG,3400 fluorescence intensity (a.u.)
19,AAGCTGACATAGAATAAATTGTTGGCTGTTTGTTTCTCTACGGAGTCACCTAGTGCAG,3500 fluorescence intensity (a.u.)
20,CGCCCAACCCCAACACATGTACATTTCCCTTGGCTTGCTTCGGAGTCACCTAGTGCAG,3360 fluorescence intensity (a.u.)
21,TAGTGCTACAGTACCCACGTGTGCTAATGACGGATTAATTCGGAGTCACCTAGTGCAG,4060 fluorescence intensity (a.u.)

row,Sequence,binding signal
1,CTGTTGTCGCCGTGTCCCCTCCCTTCTTCTCCCTCCCCTTCGGAGTCACCTAGTGCAG,3450 fluorescence intensity (a.u.)
2,GTTCCGAACGGATATGACTCATTATTCATTATTATCAGGACGGAGTCACCTAGTGCAG,5170 fluorescence intensity (a.u.)
3,TGTCCAACAACTGGCACACGCCTCGTCTTCTTCCGTGACGCGGAGTCACCTAGTGCAG,3500 fluorescence intensity (a.u.)
4,TACCGCTTAAAGTAAATATCTTCCTATGGTATTTACGTCGCGGAGTCACCTAGTGCAG,3580 fluorescence intensity (a.u.)
5,CCTTGAGATTTCGATCGGTATCCACATCACCCCAGGACAACGGAGTCACCTAGTGCAG,5220 fluorescence intensity (a.u.)
6,CTTTGCGGTGAGGAGACGCGCGCGCATTGGCGCCGCCGTCCGGAGTCACCTAGTGCAG,3970 fluorescence intensity (a.u.)
7,TGCTCTGCTGCTGCATCCCCGACACGTACGCCCGCATCCGCGGAGTCACCTAGTGCAG,7200 fluorescence intensity (a.u.)
8,ACACTACCAATAGCTGGTACTTATTCAGCACAATAAGCTACGGAGTCACCTAGTGCAG,46400 fluorescence intensity (a.u.)
9,TCTCGAGTTTCACCATAAAGGACTTGATGCAGCTCTTTTACGGAGTCACCTAGTGCAG,3190 fluorescence intensity (a.u.)
10,GTTTCAGGTTGATAAATCCAGTTGTCATCTCACCAACCGTCGGAGTCACCTAGTGCAG,3500 fluorescence intensity (a.u.)
11,TTTGGCATACCTGGAGCAGATCAGGCAGCACATGGCGAGGCGGAGTCACCTAGTGCAG,25600 fluorescence intensity (a.u.)
12,TGAAATGCTATGTTGGTCCAGACTTCCGCTACGAAGGAGACGGAGTCACCTAGTGCAG,65100 fluorescence intensity (a.u.)
13,ACAGTAGAGTGGGGTGTGCATATAATATTCATCAATTAGGCGGAGTCACCTAGTGCAG,3700 fluorescence intensity (a.u.)
14,CTTCCATCTGAGTCGTCCACGTGGCTCCACACGCGTTCCCCGGAGTCACCTAGTGCAG,8720 fluorescence intensity (a.u.)
15,GGCCACCTAACCCACCACACGTGGCAACCCGCTGAAGGGGCGGAGTCACCTAGTGCAG,14300 fluorescence intensity (a.u.)
16,GGCGACGCGGAAGAGCTCCCACCGCTGCTTGAACGCCTCGCGGAGTCACCTAGTGCAG,3640 fluorescence intensity (a.u.)
17,GCGTCCTATAAATACCCTACACGCGTAGCCATCTTCTGCACGGAGTCACCTAGTGCAG,4430 fluorescence intensity (a.u.)
18,TATATGTGGTGTGTGTAACTACGCCGATGTTATGCAGCTACGGAGTCACCTAGTGCAG,3370 fluorescence intensity (a.u.)
19,CGGCGACTCACCCCACCCGCGTTGCCGGCCATCAGATCCGCGGAGTCACCTAGTGCAG,3300 fluorescence intensity (a.u.)
20,AATTTATAATTATATATTATAAGCTTGAATTTATTTATACCGGAGTCACCTAGTGCAG,35900 fluorescence intensity (a.u.)
21,AACAAACCACATCTGACTGTAAAATATTCAGTCTTCTATTCGGAGTCACCTAGTGCAG,3420 fluorescence intensity (a.u.)

# In another format: entries from further up
row	Sequence	binding signal
5	CCTTGAGATTTCGATCGGTATCCACATCACCCCAGGACAACGGAGTCACCTAGTGCAG	5220 fluorescence intensity (a.u.)
6	CTTTGCGGTGAGGAGACGCGCGCGCATTGGCGCCGCCGTCCGGAGTCACCTAGTGCAG	3970 fluorescence intensity (a.u.)
7	TGCTCTGCTGCTGCATCCCCGACACGTACGCCCGCATCCGCGGAGTCACCTAGTGCAG	7200 fluorescence intensity (a.u.)
8	ACACTACCAATAGCTGGTACTTATTCAGCACAATAAGCTACGGAGTCACCTAGTGCAG	46400 fluorescence intensity (a.u.)
9	TCTCGAGTTTCACCATAAAGGACTTGATGCAGCTCTTTTACGGAGTCACCTAGTGCAG	3190 fluorescence intensity (a.u.)
10	GTTTCAGGTTGATAAATCCAGTTGTCATCTCACCAACCGTCGGAGTCACCTAGTGCAG	3500 fluorescence intensity (a.u.)
11	TTTGGCATACCTGGAGCAGATCAGGCAGCACATGGCGAGGCGGAGTCACCTAGTGCAG	25600 fluorescence intensity (a.u.)
12	TGAAATGCTATGTTGGTCCAGACTTCCGCTACGAAGGAGACGGAGTCACCTAGTGCAG	65100 fluorescence intensity (a.u.)
13	ACAGTAGAGTGGGGTGTGCATATAATATTCATCAATTAGGCGGAGTCACCTAGTGCAG	3700 fluorescence intensity (a.u.)
14	CTTCCATCTGAGTCGTCCACGTGGCTCCACACGCGTTCCCCGGAGTCACCTAGTGCAG	8720 fluorescence intensity (a.u.)

# Source: publication PMC7819943, “Rice protein-binding microarrays: a tool to detect cis-acting elements near promoter regions in rice”
